# According to the supplement of paper PMC7238544:
# Counter-ions that a name gives are not always drawn. ± gives the standard deviation of the averaged measurements. The list shows a part of the results. The data scatter; read single values as rough.
# Experiments:
# hAMSC donor 1 [1] = assay: Hoechst total cell count ratio vs vehicle control; higher = more cells (less toxicity)
# hAMSC donor 2 [2] = assay: as above
# hAMSC donor 1 [3] = assay: transgenic luciferase activity (RLU/mg protein) fold change vs vehicle control (ratio); higher = more transgene expression
# hAMSC donor 2 [4] = assay: as above
# hAMSC donor 1 [5] = assay: transfection efficiency (EGFP+ cells / Hoechst count) fold change vs vehicle control (ratio); hAMSC are human adipose-derived mesenchymal stem cells given an EGFP-luciferase plasmid by lipofection; higher = enhanced transfection
# hAMSC donor 2 [6] = assay: as above
# [7] = priming compound concentration 0.2 µM
# [8] = priming compound concentration 1.7 µM
# [9] = priming compound concentration 13 µM
SMILES,Hoechst total cell count ratio (hAMSC donor 1 [1]; [7]),Hoechst total cell count ratio (hAMSC donor 1 [1]; [8]),Hoechst total cell count ratio (hAMSC donor 1 [1]; [9]),Hoechst total cell count ratio (hAMSC donor 2 [2]; [7]),Hoechst total cell count ratio (hAMSC donor 2 [2]; [8]),Hoechst total cell count ratio (hAMSC donor 2 [2]; [9]),transgenic luciferase activity (hAMSC donor 1 [3]; [7]),transgenic luciferase activity (hAMSC donor 2 [4]; [7]),transgenic luciferase activity (hAMSC donor 1 [3]; [9]),transgenic luciferase activity (hAMSC donor 2 [4]; [9]),transfection efficiency (hAMSC donor 1 [5]; [7]),transfection efficiency (hAMSC donor 1 [5]; [8]),transfection efficiency (hAMSC donor 1 [5]; [9]),transfection efficiency (hAMSC donor 2 [6]; [7]),transfection efficiency (hAMSC donor 2 [6]; [8]),transfection efficiency (hAMSC donor 2 [6]; [9]),transgenic luciferase activity (hAMSC donor 1 [3]; [8]),transgenic luciferase activity (hAMSC donor 2 [4]; [8])
CCN(CC)CCCC(C)Nc1c2ccc(Cl)cc2nc2ccc(OC)cc12 (configuration not stated) [Quinacrine hydrochloride hydrate],1.3 ± 0.096,1.16 ± 0.06,0.634 ± 0.035,0.975 ± 0.072,0.982 ± 0.037,0.292 ± 0.047,1.44 ± 0.47,1.04 ± 0.065,–,–,–,–,–,–,–,–,–,–
CO[C@H]1/C=C/O[C@@]2(C)Oc3c(C)c(O)c4c(c3C2=O)C2=NC3(CCN(CC(C)C)CC3)NC2=C(NC(=O)/C(C)=C\C=C\[C@H](C)[C@H](O)[C@@H](C)[C@@H](O)[C@@H](C)[C@H](OC(C)=O)[C@@H]1C)C4=O [Rifabutin],1.38 ± 0.22,1.55 ± 0.078,1.43 ± 0.2,1.21 ± 0.054,1.03 ± 0.2,1.56 ± 0.16,–,0.721 ± 0.12,0.68 ± 0.073,0.416 ± 0.079,1.05 ± 0.37,1.06 ± 0.15,0.543 ± 0.24,0.982 ± 0.032,0.864 ± 0.088,0.682 ± 0.11,–,–
C[C@H]1O[C@H](O[C@H]2[C@H](O)[C@@H](O)[C@@H](O[C@H]3[C@H](O)[C@@H](O)C(O)O[C@@H]3CO)O[C@@H]2CO)[C@H](O)[C@@H](O)[C@@H]1N[C@H]1C=C(CO)[C@@H](O)[C@H](O)[C@H]1O (some centres not stated) [Acarbose],1.34 ± 0.12,1.23 ± 0.11,1.09 ± 0.18,1.15 ± 0.067,1.12 ± 0.18,1.11 ± 0.13,–,0.819 ± 0.048,0.933 ± 0.18,0.948 ± 0.33,1.01 ± 0.16,1.05 ± 0.17,1.49 ± 0.27,1.12 ± 0.28,0.954 ± 0.046,0.968 ± 0.061,–,–
CC(C(=O)O)c1cccc(C(=O)c2ccccc2)c1 (configuration not stated) [Ketoprofen],–,–,–,–,–,–,–,0.699 ± 0.13,1.03 ± 0.067,0.391 ± 0.12,0.748 ± 0.22,0.833 ± 0.17,1.2 ± 0.41,1.57 ± 0.12,0.671 ± 0.056,0.942 ± 0.17,–,–
c1cnc(N2CCN(Cc3ccc4c(c3)OCO4)CC2)nc1 [Piribedil hydrochloride],1.01 ± 0.2,1.08 ± 0.13,1.23 ± 0.037,1.36 ± 0.32,1.5 ± 0.25,1.07 ± 0.094,–,–,–,0.952 ± 0.1,1.28 ± 0.4,1.5 ± 0.17,1.15 ± 0.51,0.921 ± 0.029,1.11 ± 0.16,1.3 ± 0.23,0.866 ± 0.54,–
C[C@]12C[C@H](O)[C@H]3[C@@H](CCC4=CC(=O)CC[C@@]43C)[C@@H]1CC[C@@H]2C(=O)CO [Corticosterone],1.09 ± 0.24,1.23 ± 0.15,1.33 ± 0.2,1.07 ± 0.14,1.81 ± 0.11,1.23 ± 0.54,0.734 ± 0.14,–,–,–,1.54 ± 0.33,1.01 ± 0.41,1.19 ± 0.24,1.3 ± 0.1,1.29 ± 0.27,1.57 ± 0.54,–,1.33 ± 0.45
CN(C)CC[C@@H](c1ccc(Br)cc1)c1ccccn1 [Dexbrompheniramine maleate],1.19 ± 0.13,1.06 ± 0.13,1.14 ± 0.17,1.47 ± 0.28,1.08 ± 0.19,0.844 ± 0.036,–,–,–,1.1 ± 0.33,1.22 ± 0.54,1.63 ± 0.3,1.54 ± 0.45,0.883 ± 0.11,0.97 ± 0.057,1.38 ± 0.17,0.991 ± 0.16,–
CN(C)CCCC1(c2ccc(F)cc2)OCc2cc(C#N)ccc21 (configuration not stated) [Citalopram hydrobromide],1.14 ± 0.15,1.27 ± 0.12,1.24 ± 0.064,1.21 ± 0.13,1.33 ± 0.067,1.28 ± 0.21,1.16 ± 0.3,0.864 ± 0.17,–,–,0.98 ± 0.34,0.66 ± 0.2,0.971 ± 0.38,1.19 ± 0.28,0.865 ± 0.16,0.871 ± 0.1,–,–
N#Cc1ccc(C(c2ccc(C#N)cc2)n2cncn2)cc1 [Letrozole],0.977 ± 0.085,1.21 ± 0.2,1 ± 0.047,1.05 ± 0.12,1.45 ± 0.24,0.931 ± 0.39,0.613 ± 0.12,–,–,–,1.38 ± 0.45,0.991 ± 0.54,1.48 ± 0.095,1.28 ± 0.35,0.974 ± 0.13,1.23 ± 0.3,–,0.525 ± 0.14
CN1CCN(c2nc3cc(C(F)(F)F)ccc3n3cccc23)CC1,1.24 ± 0.21,1.24 ± 0.15,1.19 ± 0.25,1.21 ± 0.071,1.39 ± 0.029,1.45 ± 0.29,0.929 ± 0.18,–,–,–,0.991 ± 0.4,0.908 ± 0.36,0.926 ± 0.49,1.02 ± 0.16,1.15 ± 0.093,0.696 ± 0.18,–,0.649 ± 0.24
CC1(C)S[C@@H]2[C@H](NC(=O)[C@H](N)c3ccc(O)cc3)C(=O)N2[C@H]1C(=O)O [Amoxicillin],1.19 ± 0.1,1.46 ± 0.16,1.47 ± 0.12,1.09 ± 0.19,1.11 ± 0.087,1.1 ± 0.099,2.15 ± 0.79,1.25 ± 0.03,–,–,0.664 ± 0.067,0.662 ± 0.23,0.853 ± 0.3,1.21 ± 0.18,0.876 ± 0.059,0.93 ± 0.074,–,–
CC(C)[C@H](N)C(=O)OCCOCn1cnc2c(=O)nc(N)[nH]c21 [Valaciclovir hydrochloride],1.07 ± 0.14,1.12 ± 0.11,1.19 ± 0.11,1.48 ± 0.15,1.61 ± 0.059,1.03 ± 0.14,–,–,–,0.993 ± 0.77,1.09 ± 0.22,0.725 ± 0.058,0.947 ± 0.3,0.937 ± 0.049,0.81 ± 0.029,1.55 ± 0.23,1.45 ± 0.53,–
O=C(CCCN1CC=C(n2c(=O)[nH]c3ccccc32)CC1)c1ccc(F)cc1 [Droperidol],1.21 ± 0.062,1.03 ± 0.024,1.24 ± 0.024,1.29 ± 0.24,1.59 ± 0.15,0.95 ± 0.08,–,–,–,0.893 ± 0.14,1.38 ± 0.21,1.49 ± 0.61,0.981 ± 0.067,1.03 ± 0.11,1.15 ± 0.18,1.37 ± 0.24,0.768 ± 0.48,–
c1ccc2c(CC3=NCCN3)cccc2c1 [Naphazoline hydrochloride],1.16 ± 0.12,1.2 ± 0.081,1.2 ± 0.087,0.97 ± 0.28,1.02 ± 0.43,0.828 ± 0.14,1.38 ± 0.48,–,–,–,1.04 ± 0.36,0.7 ± 0.28,1 ± 0.32,1.09 ± 0.055,0.823 ± 0.27,1.11 ± 0.19,–,0.705 ± 0.56
OCc1cccnc1 [3-Pyridinemethanol],1.1 ± 0.017,0.992 ± 0.14,1.08 ± 0.2,1.14 ± 0.24,1.61 ± 0.036,0.951 ± 0.2,0.617 ± 0.29,–,–,–,1.08 ± 0.25,1.31 ± 0.64,1.13 ± 0.071,1.06 ± 0.29,0.903 ± 0.24,1.11 ± 0.28,–,0.316 ± 0.05
C=CC1=C(C(=O)O)N2C(=O)[C@@H](NC(=O)/C(=N\OCC(=O)O)c3csc(N)n3)[C@H]2SC1 [Cefixime trihydrate],1.09 ± 0.11,1.2 ± 0.13,0.777 ± 0.28,1.23 ± 0.28,1.15 ± 0.22,0.277 ± 0.037,0.951 ± 0.35,–,–,–,0.982 ± 0.035,0.968 ± 0.17,1.88 ± 0.64,1.15 ± 0.42,1.14 ± 0.28,1.49 ± 0.19,–,0.752 ± 0.053
O=C(c1ccccc1)c1ccc2n1CCC2C(=O)O (configuration not stated) [Ketorolac tromethamine],1.22 ± 0.2,1.31 ± 0.17,1.25 ± 0.093,1.01 ± 0.2,1.23 ± 0.1,1.37 ± 0.12,1.2 ± 0.48,0.705 ± 0.35,–,–,0.949 ± 0.44,1.14 ± 0.22,1.29 ± 0.33,1.39 ± 0.2,0.851 ± 0.065,0.916 ± 0.092,–,–
NC(=O)OCC(COC(N)=O)c1ccccc1 [Felbamate],1.13 ± 0.1,1.29 ± 0.32,1.26 ± 0.16,1.09 ± 0.15,1.53 ± 0.22,0.85 ± 0.13,0.795 ± 0.24,–,–,–,0.875 ± 0.2,0.631 ± 0.2,0.956 ± 0.16,0.736 ± 0.0085,0.983 ± 0.1,1.22 ± 0.32,–,0.454 ± 0.02
CC[N+](C)(C)c1cccc(O)c1 [Edrophonium chloride],1.1 ± 0.068,1.11 ± 0.14,1.14 ± 0.13,1.25 ± 0.14,1.35 ± 0.047,0.901 ± 0.16,1.25 ± 0.71,–,–,–,1.06 ± 0.26,1.13 ± 0.26,1.03 ± 0.15,1.16 ± 0.13,1.16 ± 0.077,0.927 ± 0.13,–,0.678 ± 0.018

# Just Hoechst total cell count ratio (hAMSC donor 2 [2]; [9]), transgenic luciferase activity (hAMSC donor 1 [3]; [9]) and transgenic luciferase activity (hAMSC donor 1 [3]; [7]), for some of the entries so far:
SMILES | Hoechst total cell count ratio (hAMSC donor 2 [2]; [9]) | transgenic luciferase activity (hAMSC donor 1 [3]; [9]) | transgenic luciferase activity (hAMSC donor 1 [3]; [7])
O=C(c1ccccc1)c1ccc2n1CCC2C(=O)O (configuration not stated) [Ketorolac tromethamine] | 1.37 ± 0.12 | – | 1.2 ± 0.48
NC(=O)OCC(COC(N)=O)c1ccccc1 [Felbamate] | 0.85 ± 0.13 | – | 0.795 ± 0.24
